Experimental findings from paper PMC7862700 are described below.

Only a part is listed here, and it is no random draw. For some of these results: At the low end of the ranking, values are background and their order means little.

The target of the first assay is T1, ETV2 (UniProt O00321).
T1 sequence: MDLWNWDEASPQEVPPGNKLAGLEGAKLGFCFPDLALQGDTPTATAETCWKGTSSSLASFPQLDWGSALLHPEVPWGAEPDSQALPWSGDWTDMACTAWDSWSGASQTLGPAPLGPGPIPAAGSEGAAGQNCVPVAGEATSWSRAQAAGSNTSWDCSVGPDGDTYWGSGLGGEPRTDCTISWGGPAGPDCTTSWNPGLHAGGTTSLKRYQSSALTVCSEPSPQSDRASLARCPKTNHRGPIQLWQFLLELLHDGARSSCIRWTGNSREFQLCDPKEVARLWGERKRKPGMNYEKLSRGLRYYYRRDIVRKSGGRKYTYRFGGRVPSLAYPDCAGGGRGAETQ
Put plainly: DAPPL (digital affinity profiling via proximity ligation, sequencing). The settings on record: 10 mM Tris-HCl pH 7.5, 50 mM NaCl, 1 mM DTT, 4% glycerol, room temperature, 30 min; GST-TFs on glutathione beads, 16-mer random dsDNA library, 0.1% …; high values mean tight binding; double strand, one strand shown; scale: fold enrichment (6-mer frequency, TF over GST control).
GCATTT had a binding signal of 1.25. Take CGTTTC: the binding signal was 1.41. Same read-out and setting: then CACGCG, with 1.18.

A further assay concerns the target T2, ETV3L (UniProt Q6ZN32).
T2 sequence: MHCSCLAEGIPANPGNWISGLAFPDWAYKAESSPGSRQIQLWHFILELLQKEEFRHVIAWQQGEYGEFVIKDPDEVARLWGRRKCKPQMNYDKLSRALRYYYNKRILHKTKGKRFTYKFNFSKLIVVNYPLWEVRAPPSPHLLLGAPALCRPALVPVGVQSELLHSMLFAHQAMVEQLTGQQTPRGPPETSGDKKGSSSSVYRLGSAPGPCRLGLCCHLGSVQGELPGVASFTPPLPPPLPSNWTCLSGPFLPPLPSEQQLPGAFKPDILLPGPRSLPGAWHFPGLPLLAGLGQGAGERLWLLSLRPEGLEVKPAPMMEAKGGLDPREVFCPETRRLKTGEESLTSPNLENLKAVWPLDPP
The assay is described as above. To be noted: 10 mM Tris-HCl pH 7.5, 50 mM NaCl, 1 mM DTT, 4% glycerol, room temperature, 30 min; GST-TFs on glutathione beads, 16-mer random dsDNA library, 0.1% …; high values mean tight binding; double strand, one strand shown; scale: fold enrichment (6-mer frequency, TF over GST control).
Take TAATAT: the binding signal amounted to 1.34. Same read-out and setting: next, CATACA: 0.988.

GGTTAT came in with a binding signal of 0.933.

In turn, CCCACT had a binding signal of 1.37. Sequence AGTACC returned a binding signal of 0.982. On to ACCCCC, for which the binding signal came to 1.16. On the same count and under the same terms, then CATAGC, with 0.964.
